Results are given in words; binding and its absence hold for the method and conditions named. Some binding calls cover weakened binding; strength is not graded here. One block for each binder: values may come before it.
Assays:
[1] = molecular target: T1, ∆NTE^O, orange form of Synechocystis OCP lacking the N-terminal extension (residues 1–20) (Synechocystis sp. PCC 6803) (UniProt P74102); assay: SEC; redFRPcc or FRP-L49E (50 µM) pre-incubated with OCP^AA (37 µM), ∆NTE^O (6 µM) or COCP (8 µM); Superdex 200 Increase 10/300; 280 nm and carotenoid-specific absorbance; both purified
T1 sequence: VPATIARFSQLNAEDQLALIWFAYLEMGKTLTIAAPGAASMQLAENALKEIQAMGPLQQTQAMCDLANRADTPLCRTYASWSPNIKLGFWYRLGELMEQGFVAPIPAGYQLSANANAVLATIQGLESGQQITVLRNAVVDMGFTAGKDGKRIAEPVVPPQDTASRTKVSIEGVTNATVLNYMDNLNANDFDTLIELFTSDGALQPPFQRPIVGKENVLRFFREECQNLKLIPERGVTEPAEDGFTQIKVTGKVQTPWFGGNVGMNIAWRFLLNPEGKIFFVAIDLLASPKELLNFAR

[2] = molecular target: T2, OCP^Y201A/W288A, constantly active mutant of Synechocystis orange carotenoid protein (Synechocystis sp. PCC 6803) (UniProt P74102); assay: as above
T2 sequence: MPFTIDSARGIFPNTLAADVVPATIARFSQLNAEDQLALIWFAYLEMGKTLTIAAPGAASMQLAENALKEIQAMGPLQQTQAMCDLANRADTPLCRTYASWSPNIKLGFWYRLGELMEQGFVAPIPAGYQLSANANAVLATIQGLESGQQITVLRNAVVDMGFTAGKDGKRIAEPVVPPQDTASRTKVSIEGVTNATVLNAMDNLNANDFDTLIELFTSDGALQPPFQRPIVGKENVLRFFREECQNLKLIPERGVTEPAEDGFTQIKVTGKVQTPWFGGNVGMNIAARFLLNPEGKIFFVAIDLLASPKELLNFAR

[3] = substrate: T3, COCP, individual C-terminal domain of Synechocystis OCP (amino acids 165–317) (Synechocystis sp. PCC 6803) (UniProt P74102); assay: as above
T3 sequence: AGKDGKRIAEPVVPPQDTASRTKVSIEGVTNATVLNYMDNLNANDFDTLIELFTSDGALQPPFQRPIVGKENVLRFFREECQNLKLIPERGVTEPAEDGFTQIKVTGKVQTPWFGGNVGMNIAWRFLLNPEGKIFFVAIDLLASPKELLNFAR

[4] = molecular target: T1, ∆NTE^O, orange form of Synechocystis OCP lacking the N-terminal extension (residues 1–20) (Synechocystis sp. PCC 6803); assay: SEC; fixed low concentration of ∆NTE^O titrated with oxFRPcc or FRPwt (µM per dimer), 100 µl samples, Superdex 200 Increase 10/300, no reducing agents; amplitude of the complex peak fitted with the quadratic equation; apparent Kd; both purified
[5] = molecular target: T2, OCP^Y201A/W288A, constantly active mutant of Synechocystis orange carotenoid protein (Synechocystis sp. PCC 6803); assay: cross-linking + SEC; kinetics of crosslinking of OCP^AA or ∆NTE^O mixtures with oxFRPcc by 0.1–0.3% glutaraldehyde at room temperature; 30 µl aliquots on Superdex 200 Increase 5/150; both purified
[6] = molecular target: T4, ∆NTE^P, purple form of Synechocystis OCP lacking the N-terminal extension (residues 1–20) (Synechocystis sp. PCC 6803) (UniProt P74102); assay: SEC; oxFRPcc mixed with OCP^AA, COCP or ∆NTE^P (Supplementary Figs 4 and 5); 280 nm and carotenoid-specific absorbance; both purified
T4 sequence: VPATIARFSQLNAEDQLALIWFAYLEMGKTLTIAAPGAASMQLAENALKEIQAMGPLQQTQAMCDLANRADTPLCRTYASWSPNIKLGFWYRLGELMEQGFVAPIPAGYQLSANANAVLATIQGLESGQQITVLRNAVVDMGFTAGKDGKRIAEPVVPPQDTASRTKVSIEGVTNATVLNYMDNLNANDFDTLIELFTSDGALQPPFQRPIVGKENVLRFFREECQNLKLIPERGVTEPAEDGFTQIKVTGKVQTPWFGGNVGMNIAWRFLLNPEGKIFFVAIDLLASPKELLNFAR

[7] = molecular target: T2, OCP^Y201A/W288A, constantly active mutant of Synechocystis orange carotenoid protein (Synechocystis sp. PCC 6803); assay: as above
[8] = substrate: T3, ; assay: as above
[9] = molecular target: T1, ∆NTE^O, orange form of Synechocystis OCP lacking the N-terminal extension (residues 1–20) (Synechocystis sp. PCC 6803); assay: SAXS; ∆NTE^O alone, curves at 0.4 and 3.11 mg ml^−1 merged; batch mode, 10 °C, SEC buffer with 3% glycerol and 2 mM DTT; both purified

binding [1]: binds weakly
B1: FRP-L49E, monomeric mutant of Synechocystis FRP (protein, UniProt P74103 1-109)
chain: MLQTAEAPWSQAETQSAHALFRKAYQRELDGLLATVQAQASQITQIDDEWKLHDFLSAKRHEIDGKYDDRQSVIIFVFAQLLKEGLVQAEELTFLAADKQSKIKALARL
binding [2]: no binding (tested: 50 µM FRP-L49E, 37 µM OCP^AA)
binding [3]: no binding (tested: 50 µM FRP-L49E, 8 µM COCP)

binding [4]: binds
binding [5]: binds
binding [6]: binds
binding [7]: binds
binding [8]: binds
B2: oxidized FRPcc (L33C/I43C mutant of Synechocystis FRP), disulfide-trapped dimer (natural protein, UniProt P74103 1-109, looked up)
chain: MLQTAEAPWSQAETQSAHALFRKAYQRELDGLCATVQAQASQCTQIDDLWKLHDFLSAKRHEIDGKYDDRQSVIIFVFAQLLKEGLVQAEELTFLAADKQSKIKALARL
modifications: intersubunit disulfide bridges between C33 and C43
notes: fluorescence recovery protein (FRP) of Synechocystis, residues 1–109, with L33C and I43C; made from the His6-tagged wild-type template; Same polypeptide as m3, but covalently fixed as a dimer that cannot monomerize; 22 N-terminal residues of the construct are absent from 4JDX; also called oxFRPcc; oxFRPcc dimer; source: E. coli T7 SHuffle express, purified in the absence of reducing agents, …

B3: ∆NTE^O, orange form of Synechocystis OCP lacking the N-terminal extension (residues 1–20) (domain or fragment)
chain: VPATIARFSQLNAEDQLALIWFAYLEMGKTLTIAAPGAASMQLAENALKEIQAMGPLQQTQAMCDLANRADTPLCRTYASWSPNIKLGFWYRLGELMEQGFVAPIPAGYQLSANANAVLATIQGLESGQQITVLRNAVVDMGFTAGKDGKRIAEPVVPPQDTASRTKVSIEGVTNATVLNYMDNLNANDFDTLIELFTSDGALQPPFQRPIVGKENVLRFFREECQNLKLIPERGVTEPAEDGFTQIKVTGKVQTPWFGGNVGMNIAWRFLLNPEGKIFFVAIDLLASPKELLNFAR
binding [9]: no binding (tested: 0.4, 3.1 (merged) mg ml^−1)

Reference: paper PMC6155142, “OCP–FRP protein complex topologies suggest a mechanism for controlling high light tolerance in cyanobacteria” (Nature Communications, 2018)
